Results from PubChem BioAssay AID1471 (National Center for Advancing Translational Sciences (NCATS), 2008).
Out of some 230,000 compounds screened, about 310 (0.13%) were called active. The shares of active, inactive and inconclusive entries below differ from those in the screen. Calls follow the shape of the dose curve; as a rule, active = well fitted activation curve with a large enough effect; inconclusive = small, poorly fitted or top-dose-only effect; inactive = no such curve, though single readings can be large or run the other way. Where the call is inconclusive, the potency comes from a doubtful curve fit.

assay: qHTS Multiplex Assay to Identify Dual Action Probes in a Cell Model of Huntington: Cytoprotection (ATP); conditions: PC12 HTT-Q103 induced, ATP luminescence, 40 h; cytoprotection (ATP increase): at 56.4 µM (top of the series) unless noted; also: nearly all actives have a fitted effect of over 45% in size;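 as to cytoprotection (ATP increase): toxic huntingtin expression switched on by the ecdysone agonist tebufenozide; % of control where 0% means no effect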
Outline: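 PC12 cells with ecdysone-inducible HTT exon 1 Q103-GFP, induced with 100 nM tebufenozide and co-treated with library compounds in a dose series (1536-well, 1500 cells/well). Cytoprotection read as ATP content by ATPlite luminescence.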
Potency is read from the fitted curve at half-maximal effect.

Row | SMILES | Potency | cytoprotection (ATP increase)
1 | Cc1c(-n2c(SCC(=O)NC(C)C)nc3ccccc3c2=O)c(=O)n(-c2ccccc2)n1C | inconclusive: 3.16 µM [activator, single point] | –
2 | CC(=O)Nc1sc2c(c1C#N)CCCCC2 | – | inactive: -3.85% [at 10 µM]
3 | O=C1c2ccccc2NC(c2ccc(O)cc2)N1Cc1ccco1 (stereo not drawn) | – | inactive: 7.26%
4 | Cc1[nH]c(=O)c(C#N)c(C)c1Cc1ccc(Cl)cc1Cl | inconclusive: 20 µM [activator, single point] | –
5 | NC(=S)n1[nH]c(-c2ccc([N+](=O)[O-])cc2)c(N=Nc2cccc(Cl)c2)c1=O | inconclusive: 0.708 µM [activator, single point] | –
6 | Cc1cc(C)n(-c2nc3c(c(=O)n(C)c(=O)n3C)n2CCO)n1 | inconclusive: 0.112 µM [activator, full curve, poor fit] | –
7 | CCc1cc(C(=O)COc2ccc(F)cc2)c(O)cc1O | – | inactive: 25.9%
8 | O=[N+]([O-])c1cccc(NC(=S)N2CCOCC2)c1 | inconclusive: 0.0063 µM [activator, full curve, poor fit] | –
9 | CN(C)CCCCSC(=N)N | inconclusive: 17.8 µM [activator, single point] | –
10 | CCCn1c(=O)c(F)cn(Cc2ccc(OC)c([N+](=O)[O-])c2)c1=O | – | inactive: -12.2%
11 | Cn1cnc(C(F)(F)F)c1-c1ccc([N+](=O)[O-])cc1 | inconclusive: 0.891 µM [activator, partial curve] | –
12 | Cc1ccc(CC2CC(=O)N(Cc3ccco3)C2=O)cc1 (stereo not drawn) | – | inactive: 10.2%
13 | C/C(=C\CO)CCO | inconclusive: 2.51 µM [activator, full curve] | –
14 | O=C(c1ccccc1)N1CCn2c1nc1ccccc12 | inconclusive: 5.62 µM [activator, single point] | –
15 | CC(NC(=O)Nc1ccccn1)N1C(=O)C2C3C=CC(C3)C2C1=O (stereo not drawn) | inconclusive: 2.82 µM [activator, single point] | –
16 | C/C=C1\C(=O)CC2C3CCC4=CC(=O)CC[C@]4(C)C3CC[C@]12C (stereo partly drawn) | inconclusive: 7.94 µM [activator, partial curve, poor fit] | –
17 | O=C(O)c1ccc(CN2C(=O)CSC2=S)cc1 | inconclusive: 14.1 µM [activator, single point] | –
18 | CCCCC[C@H](O)/C=C/[C@@H]1[C@@H](CC(=O)CCC(=O)O)[C@@H](O)C[C@H]1O | inconclusive: 6.31 µM [activator, single point] | –
19 | CCCCCCCCCCCCCCCC[N+](C)(C)CCN(Cc1ccc(OC)cc1)c1ncccn1 | inconclusive: 12.6 µM [activator, single point] | –
20 | CC(C)Cn1c(N)c(C(=O)COC(=O)C2CC(=O)N(Cc3ccccc3Cl)C2)c(=O)n(C)c1=O (stereo not drawn) | inconclusive: 0.0891 µM [activator, partial curve, poor fit] | –
21 | Cc1nc(SCC(=O)NC(C)(C#N)C2CC2)c2c(-c3cccs3)csc2n1 (stereo not drawn) | – | inactive: 1.6% [at 1.9 µM]
22 | CC1(C)OC2CC(=O)OCC23C1CC(=O)C1(C)C3CC[C@@]2(C)[C@H](c3ccoc3)OC(=O)C3OC312 (stereo partly drawn) | inconclusive: 0.562 µM [activator, full curve, poor fit] | –

Row | SMILES | Potency | cytoprotection (ATP increase)
23 | CC(C)(C)C(=O)CSc1ncnc2c1cnn2-c1ccccc1 | inconclusive: 0.891 µM [activator, single point] | –
24 | C[C@H](O)CON1C(=O)c2ccccc2C1=O | inconclusive: 3.55 µM [activator, single point] | –
25 | COC1(OC)N=C(N)C2(C#N)C(c3ccc(C)cc3)C12C#N (stereo not drawn) | inconclusive: 5.62 µM [activator, single point] | –
26 | CC1CN(C(=O)COC(=O)c2ccc(N)c([N+](=O)[O-])c2)CC(C)O1 (stereo not drawn) | inconclusive: 0.562 µM [activator, single point] | –
27 | CN(C)CCCSc1ccccc1NC(=O)/C=C\c1ccccc1 | inconclusive: 20 µM [activator, full curve] | –
28 | C=CCN1C(=O)/C(=C2/Sc3ccc(OC)cc3N2C)SC1=Nc1cccc(O)c1 | – | inactive: 8.71% [at 10 µM]
29 | COc1ccc(C2=C/C(=C/c3cccnc3)C(=O)O2)cc1OC | inconclusive: 0.447 µM [activator, partial curve] | –
30 | CC(=O)c1c(C)[nH]c(C(=O)NC(C)c2ccccc2)c1C (stereo not drawn) | inconclusive: 0.562 µM [activator, single point] | –
31 | Cc1ccc(C(=O)O)cc1NC(=O)CCc1ccccc1 | inconclusive: 5.62 µM [activator, single point] | –
32 | Nc1[nH]n(-c2ccccc2)c(=O)c1N=Nc1ccc2ncsc2c1 | – | inactive: 0.0566% [at 10 µM]
33 | Clc1ccccc1Cn1nnc2c(Nc3ccccc3)ncnc21 | – | inactive: -26.5%
34 | CCn1c(Cc2ccccc2)nnc1SCC(=O)Nc1cc(C)on1 | inconclusive: 35.5 µM [activator, single point] | –
35 | CCOc1ccc(CC(=O)NNC(=O)NC2CCCCC2)cc1 | inconclusive: 6.31 µM [activator, single point] | –
36 | COc1ccc(OC)c(-c2c3c([nH]c(=S)c2C#N)CCCC3)c1 | inconclusive: 0.112 µM [activator, full curve, poor fit] | –
37 | OCC1=CC[N+]2(Cc3ccccc3)CCC(O)[C@@H]12 (stereo partly drawn) | inconclusive: 5.62 µM [activator, single point] | –
38 | COc1nc2c(s1)C(=O)NCCC2 | inconclusive: 0.891 µM [activator, single point] | –
39 | O=c1c(-c2ccc(F)c(F)c2)nc2cncnc2n1Cc1ccccc1Cl | inconclusive: 6.31 µM [activator, single point] | –
40 | CNC(=S)NNC(=O)COc1ccccc1C | inconclusive: 0.1 µM [activator, full curve, poor fit] | –
41 | C[N+](C)(C)CCOc1ccc([N+](=O)[O-])cc1 | inconclusive: 6.31 µM [activator, partial curve] | –
42 | Cc1cccc(NC(=S)N/N=C2/CCCCc3ccccc32)c1 | inconclusive: 5.62 µM [activator, single point] | –
43 | CCCN=C1N/C(=C\c2ccco2)C(=O)N1c1ccccc1 | – | inactive: 6.41%

From compound 12 to 23, as listed above:
Row | SMILES | Potency | cytoprotection (ATP increase)
12 | Cc1ccc(CC2CC(=O)N(Cc3ccco3)C2=O)cc1 (stereo not drawn) | – | inactive: 10.2%
13 | C/C(=C\CO)CCO | inconclusive: 2.51 µM [activator, full curve] | –
14 | O=C(c1ccccc1)N1CCn2c1nc1ccccc12 | inconclusive: 5.62 µM [activator, single point] | –
15 | CC(NC(=O)Nc1ccccn1)N1C(=O)C2C3C=CC(C3)C2C1=O (stereo not drawn) | inconclusive: 2.82 µM [activator, single point] | –
16 | C/C=C1\C(=O)CC2C3CCC4=CC(=O)CC[C@]4(C)C3CC[C@]12C (stereo partly drawn) | inconclusive: 7.94 µM [activator, partial curve, poor fit] | –
17 | O=C(O)c1ccc(CN2C(=O)CSC2=S)cc1 | inconclusive: 14.1 µM [activator, single point] | –
18 | CCCCC[C@H](O)/C=C/[C@@H]1[C@@H](CC(=O)CCC(=O)O)[C@@H](O)C[C@H]1O | inconclusive: 6.31 µM [activator, single point] | –
19 | CCCCCCCCCCCCCCCC[N+](C)(C)CCN(Cc1ccc(OC)cc1)c1ncccn1 | inconclusive: 12.6 µM [activator, single point] | –
20 | CC(C)Cn1c(N)c(C(=O)COC(=O)C2CC(=O)N(Cc3ccccc3Cl)C2)c(=O)n(C)c1=O (stereo not drawn) | inconclusive: 0.0891 µM [activator, partial curve, poor fit] | –
21 | Cc1nc(SCC(=O)NC(C)(C#N)C2CC2)c2c(-c3cccs3)csc2n1 (stereo not drawn) | – | inactive: 1.6% [at 1.9 µM]
22 | CC1(C)OC2CC(=O)OCC23C1CC(=O)C1(C)C3CC[C@@]2(C)[C@H](c3ccoc3)OC(=O)C3OC312 (stereo partly drawn) | inconclusive: 0.562 µM [activator, full curve, poor fit] | –
23 | CC(C)(C)C(=O)CSc1ncnc2c1cnn2-c1ccccc1 | inconclusive: 0.891 µM [activator, single point] | –
